Measured values as given in the supplement of paper PMC10735217.
Some of the results follow. Repeats in this data set agree poorly, so a single value says little.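 In a drug-repurposing library screen, luminescence reads luciferase driven by eight TEAD-binding elements, stably integrated into human kidney-derived cells. Compounds scoring over five robust Z scores above the plate mean are called hits.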

Tested on: HEK293A TEAD-LUC reporter
Experiment: TEAD-luciferase reporter activity (YAP activation), robust Z score vs plate; higher = stronger YAP/TEAD activation
Conditions: 24 h

Compound | TEAD-luciferase reporter activity (compound concentration: 200 nM) | TEAD-luciferase reporter activity (compound concentration: 10 uM) | TEAD-luciferase reporter activity (compound concentration: 2 uM)
CC[C@H]1CCC[C@H](O[C@H]2CC[C@H](N(C)C)[C@@H](C)O2)[C@@H](C)C(=O)C2=C[C@@H]3[C@@H](C=C(C)[C@@H]4C[C@@H](O[C@@H]5O[C@@H](C)[C@H](OC)[C@@H](OC)[C@H]5OC)C[C@@H]34)[C@@H]2CC(=O)O1 | inactive: 1.97 | inactive: -0.477 | –
Cc1cc2ncc(C(=O)NCCN3CCOCC3)cn2n1 | inactive: -2.11 | inactive: -0.697 | –
CN1CCN(c2ncc(-c3cc(Cl)cc(Cl)c3Cl)c(N)n2)CC1 [Sipatrigine] | inactive: 1.28 | inactive: -1.58 | inactive: -0.84
Cc1cc(NS(=O)(=O)c2ccc(N)cc2)nc(C)n1 | inactive: -0.778 | inactive: 0.406 | inactive: -0.594
[Cl][Mn-5]1234([Cl])[n+]5c6cccc5C[NH+]1[C@@H]1CCCC[C@H]1[NH+]2CC[NH+]3[C@@H]1CCCC[C@H]1[NH+]4C6 (some centres undefined) [Imisopasem manganese] | inactive: 1.46 | inactive: 0.283 | inactive: -0.361
CCOc1cc([C@@H](CS(C)(=O)=O)N2C(=O)c3cccc(NC(C)=O)c3C2=O)ccc1OC [Apremilast] | inactive: -3.3 | inactive: 2.59 | inactive: -1.44
O=C1COc2cc(C(=O)N3CCN(C(=O)c4ccc(Cl)cc4)CC3)ccc2N1 | inactive: -0.97 | inactive: -0.704 | inactive: -1.47
CC(C)(C)C(=O)CCC1C(=O)N(c2ccccc2)N(c2ccccc2)C1=O | inactive: 2.21 | inactive: 1.99 | inactive: 0.699
Cc1c(N2C[C@@H](N)C3(CC3)C2)c(F)c(N)c2c(=O)c(C(=O)O)cn(C3CC3)c12 | inactive: 0.343 | inactive: -0.528 | inactive: -0.548
S=C([S-])OC1CC2CC1C1CCCC21 (centres undefined) | – | – | inactive: -0.262
S=C([S-])OC1CC2CC1C1CCCC21 [D-609 potassium] | inactive: -1.05 | inactive: -0.498 | –
CC(=O)O[C@]1(C(C)=O)CCC2C3CCC4=CC(=O)CCC4=C3[C@@H](c3ccc(N(C)C)cc3)C[C@@]21C (some centres undefined) [ulipristal acetate] | inactive: -1.22 | inactive: 3.99 | inactive: -0.428
O=C1[C@H](CC[C@H](O)c2ccc(F)cc2)[C@@H](c2ccc(O)cc2)N1c1ccc(F)cc1 [ezetimibe] | – | – | inactive: -0.0945
O=C1[C@H](CC[C@H](O)c2ccc(F)cc2)[C@@H](c2ccc(O)cc2)N1c1ccc(F)cc1 | inactive: -2.62 | inactive: 0.276 | –
CN1CCCC12Cc1ccccc1CN(C(=O)C1CCCC1)C2 (centres undefined) | inactive: -0.513 | inactive: -1.14 | –
COc1ccc(NS(=O)(=O)c2sc3ccc(Cl)cc3c2C)cc1N1CCNCC1 | inactive: -0.536 | inactive: -0.497 | inactive: -1.02
CCn1c(C(=O)c2cc(C)cc(C#N)c2)c(C(C)C)c(=O)[nH]c1=O | inactive: -0.399 | inactive: 0.724 | inactive: -0.911
CCC(=O)O[C@]1(C(=O)OC)[C@H](C)C[C@H]2[C@@H]3C[C@H](F)C4=CC(=O)C=C[C@]4(C)[C@@]3(Cl)[C@@H](O)C[C@@]21C | inactive: 1.52 | inactive: -1.39 | inactive: 0.0261

Full records as entered above.
S=C([S-])OC1CC2CC1C1CCCC21 [D-609 potassium] reads TEAD-luciferase reporter activity (compound concentration: 200 nM): inactive: -1.05; TEAD-luciferase reporter activity (compound concentration: 10 uM): inactive: -0.498
O=C1COc2cc(C(=O)N3CCN(C(=O)c4ccc(Cl)cc4)CC3)ccc2N1 reads TEAD-luciferase reporter activity (compound concentration: 200 nM): inactive: -0.97; TEAD-luciferase reporter activity (compound concentration: 10 uM): inactive: -0.704; TEAD-luciferase reporter activity (compound concentration: 2 uM): inactive: -1.47

(continued)

Compound | TEAD-luciferase reporter activity (compound concentration: 200 nM) | TEAD-luciferase reporter activity (compound concentration: 10 uM) | TEAD-luciferase reporter activity (compound concentration: 2 uM)
O=C1CCC2(CCC(=O)c3cc(F)ccc32)C(=O)N1 (centres undefined) | inactive: 0.945 | inactive: 0.241 | inactive: -0.499
CCCOc1nc(N)c2ncn(C3CCCC3)c2n1 | inactive: -0.235 | inactive: -0.0763 | inactive: -1.17
Cn1nnc2c(C(N)=O)ncn2c1=O | inactive: -1.42 | inactive: -0.917 | –
Cn1nnc2c(C(N)=O)ncn2c1=O [Temozolomide] | – | – | inactive: -0.909
O=C(COc1ccccc1)NC1C(=O)N2C(C(=O)O)=C(Cl)CSC12 (centres undefined) | inactive: -0.0627 | inactive: 0.693 | inactive: -2.27
O=C(CCCC(=O)N1CCN(c2nsc3ccccc23)CC1)N1CCCCCC1 | inactive: 1.78 | inactive: 0.847 | inactive: -0.887
CSc1ccc(Oc2ccc(S(=O)(=O)N(C)C)cc2CN(C)C)cc1 | inactive: 3.97 | inactive: -0.233 | inactive: 0.166
NC(=O)N[C@@H](CCC(=O)O)C(=O)O [carglumic acid] | – | – | inactive: 1.42
NC(=O)N[C@@H](CCC(=O)O)C(=O)O | inactive: -0.498 | inactive: 1.57 | –
COC[C@@H]1C[C@@](C#N)(Cn2cccn2)N(C(=O)c2ccc(C(C)(C)C)c(OC)c2)[C@@H]1c1nccs1 | inactive: -1.3 | inactive: -1.34 | inactive: 2.98
Cc1cc(C)cc(-c2ccc(CN3CCCC3C(=O)NC3CCCC3)cc2)c1 (centres undefined) | inactive: -3.15 | inactive: 0.297 | –
COC(=O)[C@@H]1CC2=CC(=O)CC[C@]2(C)[C@@]23OC2C[C@@]2(C)[C@@H](CC[C@@]24CCC(=O)O4)C13 (some centres undefined) [eplere] | inactive: -1.43 | inactive: 0.131 | inactive: 0.865
CC(C)NCCCC[C@H](NC(=O)[C@H]1CCC(=O)N[C@@H](Cc2ccccc2)C(=O)N[C@H](Cc2ccc(O)cc2)C(=O)N[C@@H](CCCCNC(C)C)C(=O)N[C@H](CCCNC(=N)N)C(=O)N[C@@H](Cc2ccc3ccccc3c2)C(=O)NCC(=O)N1)C(N)=O | inactive: -0.934 | inactive: -0.0404 | inactive: -0.913
COc1ccc(C2(CCCN(C)C)OCc3cc(C#N)ccc32)cc1 (centres undefined) | inactive: -1.35 | inactive: -0.444 | inactive: 1.2
O=[N+]([O-])c1ccc(S[C@@H]2SC[C@@H](O)[C@@H](O)[C@@H]2O)cc1 | inactive: -1.28 | inactive: -0.995 | inactive: -0.221
CCOc1c(N)cccc1C(=O)OCCN(CC)CC | inactive: 0.0245 | inactive: 1.41 | inactive: 0.302
O=C(O)c1ccc(CNCC(O)c2ccccc2)cc1 (centres undefined) | inactive: -1.35 | inactive: 4.77 | inactive: -2.11
